Test results reported in the supplement of paper PMC12067093, “Discovery and optimisation of a covalent ligand for TRIM25 and its application to targeted protein ubiquitination” (Chemical Science, 2025).
The other results are listed elsewhere or left out.

Sequences of proteins named here, by UniProt entry; tags and fusion partners are left off. A change or cut given only in a name is not applied to a line headed by its entry.
UniProt Q8NB90: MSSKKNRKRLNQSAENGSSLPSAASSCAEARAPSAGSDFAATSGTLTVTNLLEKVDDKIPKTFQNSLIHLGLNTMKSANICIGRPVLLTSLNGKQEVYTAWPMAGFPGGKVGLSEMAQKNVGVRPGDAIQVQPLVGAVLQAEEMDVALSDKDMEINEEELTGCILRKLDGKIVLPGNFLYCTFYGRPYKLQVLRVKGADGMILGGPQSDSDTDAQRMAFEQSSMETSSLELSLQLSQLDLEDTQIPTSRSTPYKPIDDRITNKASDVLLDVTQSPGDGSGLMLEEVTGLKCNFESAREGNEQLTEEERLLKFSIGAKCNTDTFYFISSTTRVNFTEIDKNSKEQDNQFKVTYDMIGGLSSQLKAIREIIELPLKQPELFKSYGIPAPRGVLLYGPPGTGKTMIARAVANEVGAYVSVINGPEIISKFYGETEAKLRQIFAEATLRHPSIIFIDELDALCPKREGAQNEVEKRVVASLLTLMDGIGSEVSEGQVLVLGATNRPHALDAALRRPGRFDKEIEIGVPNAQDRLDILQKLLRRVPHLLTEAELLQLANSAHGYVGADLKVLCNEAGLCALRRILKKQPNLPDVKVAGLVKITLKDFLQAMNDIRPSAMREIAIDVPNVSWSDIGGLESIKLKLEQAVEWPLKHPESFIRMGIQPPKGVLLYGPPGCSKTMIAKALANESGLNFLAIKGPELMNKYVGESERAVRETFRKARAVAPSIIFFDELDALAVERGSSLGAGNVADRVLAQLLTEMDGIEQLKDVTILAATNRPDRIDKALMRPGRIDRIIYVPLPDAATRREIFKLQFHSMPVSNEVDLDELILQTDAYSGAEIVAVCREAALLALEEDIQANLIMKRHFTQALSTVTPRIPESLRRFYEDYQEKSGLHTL
UniProt P23497: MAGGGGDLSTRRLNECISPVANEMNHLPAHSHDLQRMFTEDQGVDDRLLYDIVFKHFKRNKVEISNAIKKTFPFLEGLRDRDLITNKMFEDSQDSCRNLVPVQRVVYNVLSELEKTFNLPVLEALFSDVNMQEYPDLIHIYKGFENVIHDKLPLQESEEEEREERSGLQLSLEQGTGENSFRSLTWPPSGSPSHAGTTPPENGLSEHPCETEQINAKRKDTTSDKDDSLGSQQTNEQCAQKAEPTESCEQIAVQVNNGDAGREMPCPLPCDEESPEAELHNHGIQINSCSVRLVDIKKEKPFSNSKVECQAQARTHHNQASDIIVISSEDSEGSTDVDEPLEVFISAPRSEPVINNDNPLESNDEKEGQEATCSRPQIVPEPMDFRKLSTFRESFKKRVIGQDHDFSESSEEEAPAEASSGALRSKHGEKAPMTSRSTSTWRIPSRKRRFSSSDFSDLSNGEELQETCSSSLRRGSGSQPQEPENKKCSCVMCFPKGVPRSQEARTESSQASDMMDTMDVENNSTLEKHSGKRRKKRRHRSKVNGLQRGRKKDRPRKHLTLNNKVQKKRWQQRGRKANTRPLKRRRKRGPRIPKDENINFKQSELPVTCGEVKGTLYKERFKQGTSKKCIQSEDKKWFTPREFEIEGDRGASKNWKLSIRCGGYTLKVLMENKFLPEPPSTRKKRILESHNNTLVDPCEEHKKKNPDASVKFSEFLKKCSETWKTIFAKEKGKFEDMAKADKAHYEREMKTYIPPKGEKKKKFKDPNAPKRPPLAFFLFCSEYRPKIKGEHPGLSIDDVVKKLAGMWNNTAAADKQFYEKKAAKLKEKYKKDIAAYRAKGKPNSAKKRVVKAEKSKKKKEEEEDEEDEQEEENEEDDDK
UniProt P18583: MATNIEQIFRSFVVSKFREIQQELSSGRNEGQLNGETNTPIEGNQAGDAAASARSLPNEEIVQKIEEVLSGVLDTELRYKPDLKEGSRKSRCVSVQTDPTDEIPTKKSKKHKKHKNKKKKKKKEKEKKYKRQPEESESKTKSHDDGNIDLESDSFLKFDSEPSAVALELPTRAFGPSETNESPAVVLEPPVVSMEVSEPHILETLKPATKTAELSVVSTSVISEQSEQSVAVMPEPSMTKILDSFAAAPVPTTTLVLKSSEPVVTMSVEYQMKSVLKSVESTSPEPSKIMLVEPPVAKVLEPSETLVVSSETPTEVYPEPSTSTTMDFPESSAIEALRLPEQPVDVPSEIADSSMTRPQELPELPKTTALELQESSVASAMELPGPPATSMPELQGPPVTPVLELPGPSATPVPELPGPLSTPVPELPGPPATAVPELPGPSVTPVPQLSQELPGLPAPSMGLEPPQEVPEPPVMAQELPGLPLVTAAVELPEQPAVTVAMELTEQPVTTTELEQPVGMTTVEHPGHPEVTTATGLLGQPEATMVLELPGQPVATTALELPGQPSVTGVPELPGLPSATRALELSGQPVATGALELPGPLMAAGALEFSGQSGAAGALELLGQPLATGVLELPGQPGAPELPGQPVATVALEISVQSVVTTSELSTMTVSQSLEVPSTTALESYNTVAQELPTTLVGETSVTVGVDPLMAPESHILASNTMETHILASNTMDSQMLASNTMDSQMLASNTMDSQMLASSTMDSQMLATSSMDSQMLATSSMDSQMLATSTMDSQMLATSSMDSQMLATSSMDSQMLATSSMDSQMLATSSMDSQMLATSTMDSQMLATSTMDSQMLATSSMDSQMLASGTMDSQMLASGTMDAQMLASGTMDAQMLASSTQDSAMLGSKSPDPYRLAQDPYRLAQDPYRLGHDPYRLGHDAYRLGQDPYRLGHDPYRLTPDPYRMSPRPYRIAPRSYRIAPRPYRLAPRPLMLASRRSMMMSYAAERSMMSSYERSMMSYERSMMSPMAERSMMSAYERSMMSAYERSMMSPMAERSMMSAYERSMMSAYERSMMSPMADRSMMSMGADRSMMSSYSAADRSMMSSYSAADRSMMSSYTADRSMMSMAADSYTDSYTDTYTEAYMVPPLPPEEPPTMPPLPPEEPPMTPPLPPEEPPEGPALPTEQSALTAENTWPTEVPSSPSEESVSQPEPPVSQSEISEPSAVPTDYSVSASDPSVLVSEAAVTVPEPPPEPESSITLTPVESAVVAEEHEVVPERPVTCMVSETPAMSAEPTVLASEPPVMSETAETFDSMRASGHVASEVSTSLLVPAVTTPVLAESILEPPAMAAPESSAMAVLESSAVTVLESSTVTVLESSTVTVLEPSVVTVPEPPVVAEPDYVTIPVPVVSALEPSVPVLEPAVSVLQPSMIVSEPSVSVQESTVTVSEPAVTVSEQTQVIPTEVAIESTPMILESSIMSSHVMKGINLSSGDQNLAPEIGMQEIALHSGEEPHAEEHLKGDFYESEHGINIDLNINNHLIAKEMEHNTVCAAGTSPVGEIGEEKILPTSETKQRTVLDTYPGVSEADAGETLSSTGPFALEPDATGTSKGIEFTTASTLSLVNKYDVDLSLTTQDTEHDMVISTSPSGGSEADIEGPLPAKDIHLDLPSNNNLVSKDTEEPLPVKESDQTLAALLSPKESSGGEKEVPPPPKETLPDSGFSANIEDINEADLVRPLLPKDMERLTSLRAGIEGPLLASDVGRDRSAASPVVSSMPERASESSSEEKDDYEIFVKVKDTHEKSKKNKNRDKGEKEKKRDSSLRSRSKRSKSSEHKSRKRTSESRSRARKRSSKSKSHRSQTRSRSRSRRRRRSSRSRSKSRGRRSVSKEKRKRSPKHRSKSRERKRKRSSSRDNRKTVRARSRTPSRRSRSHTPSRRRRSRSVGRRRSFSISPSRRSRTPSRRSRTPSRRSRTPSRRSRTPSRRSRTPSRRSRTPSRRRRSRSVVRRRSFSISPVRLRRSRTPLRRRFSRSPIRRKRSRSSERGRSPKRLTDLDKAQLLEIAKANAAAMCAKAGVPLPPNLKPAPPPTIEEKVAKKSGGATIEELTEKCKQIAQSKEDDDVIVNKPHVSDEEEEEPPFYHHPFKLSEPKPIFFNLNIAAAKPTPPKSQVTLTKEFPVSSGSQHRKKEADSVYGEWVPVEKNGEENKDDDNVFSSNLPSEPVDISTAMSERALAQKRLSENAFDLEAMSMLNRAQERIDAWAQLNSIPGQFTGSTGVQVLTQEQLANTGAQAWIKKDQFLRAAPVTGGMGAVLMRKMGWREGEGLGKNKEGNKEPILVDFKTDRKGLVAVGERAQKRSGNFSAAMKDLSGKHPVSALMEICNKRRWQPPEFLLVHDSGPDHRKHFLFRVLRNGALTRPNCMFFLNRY
UniProt O60504: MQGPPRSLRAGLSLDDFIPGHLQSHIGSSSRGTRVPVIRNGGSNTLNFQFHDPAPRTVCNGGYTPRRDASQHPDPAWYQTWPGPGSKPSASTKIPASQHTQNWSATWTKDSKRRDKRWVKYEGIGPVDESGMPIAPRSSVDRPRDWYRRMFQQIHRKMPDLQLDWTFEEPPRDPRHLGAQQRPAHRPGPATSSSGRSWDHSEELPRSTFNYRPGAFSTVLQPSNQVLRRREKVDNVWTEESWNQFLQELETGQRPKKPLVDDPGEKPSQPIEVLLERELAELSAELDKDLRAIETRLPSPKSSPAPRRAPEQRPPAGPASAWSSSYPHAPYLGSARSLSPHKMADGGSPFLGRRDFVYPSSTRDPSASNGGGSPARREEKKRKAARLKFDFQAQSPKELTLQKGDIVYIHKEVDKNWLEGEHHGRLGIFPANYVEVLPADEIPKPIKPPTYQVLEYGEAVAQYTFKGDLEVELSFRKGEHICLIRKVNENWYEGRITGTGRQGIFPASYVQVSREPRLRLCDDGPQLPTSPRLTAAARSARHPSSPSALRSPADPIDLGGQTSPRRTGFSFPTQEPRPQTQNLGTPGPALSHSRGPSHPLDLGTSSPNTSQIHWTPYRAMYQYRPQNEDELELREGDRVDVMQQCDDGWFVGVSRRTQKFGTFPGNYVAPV
UniProt P09132: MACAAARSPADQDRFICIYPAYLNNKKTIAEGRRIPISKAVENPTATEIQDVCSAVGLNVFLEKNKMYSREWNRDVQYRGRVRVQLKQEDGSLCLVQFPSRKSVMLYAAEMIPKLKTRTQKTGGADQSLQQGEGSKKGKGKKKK
UniProt Q9Y5X3: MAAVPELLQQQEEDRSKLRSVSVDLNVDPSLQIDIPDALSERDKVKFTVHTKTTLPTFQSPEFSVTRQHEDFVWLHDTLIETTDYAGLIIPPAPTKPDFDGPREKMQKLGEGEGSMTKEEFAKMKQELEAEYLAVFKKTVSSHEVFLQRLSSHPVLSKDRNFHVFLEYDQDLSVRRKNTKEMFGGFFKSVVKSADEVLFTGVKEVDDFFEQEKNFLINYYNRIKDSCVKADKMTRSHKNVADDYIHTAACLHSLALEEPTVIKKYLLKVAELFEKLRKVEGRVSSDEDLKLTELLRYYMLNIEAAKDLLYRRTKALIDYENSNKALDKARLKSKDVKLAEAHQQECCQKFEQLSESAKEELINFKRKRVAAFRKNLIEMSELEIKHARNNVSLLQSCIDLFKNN
UniProt Q5M775: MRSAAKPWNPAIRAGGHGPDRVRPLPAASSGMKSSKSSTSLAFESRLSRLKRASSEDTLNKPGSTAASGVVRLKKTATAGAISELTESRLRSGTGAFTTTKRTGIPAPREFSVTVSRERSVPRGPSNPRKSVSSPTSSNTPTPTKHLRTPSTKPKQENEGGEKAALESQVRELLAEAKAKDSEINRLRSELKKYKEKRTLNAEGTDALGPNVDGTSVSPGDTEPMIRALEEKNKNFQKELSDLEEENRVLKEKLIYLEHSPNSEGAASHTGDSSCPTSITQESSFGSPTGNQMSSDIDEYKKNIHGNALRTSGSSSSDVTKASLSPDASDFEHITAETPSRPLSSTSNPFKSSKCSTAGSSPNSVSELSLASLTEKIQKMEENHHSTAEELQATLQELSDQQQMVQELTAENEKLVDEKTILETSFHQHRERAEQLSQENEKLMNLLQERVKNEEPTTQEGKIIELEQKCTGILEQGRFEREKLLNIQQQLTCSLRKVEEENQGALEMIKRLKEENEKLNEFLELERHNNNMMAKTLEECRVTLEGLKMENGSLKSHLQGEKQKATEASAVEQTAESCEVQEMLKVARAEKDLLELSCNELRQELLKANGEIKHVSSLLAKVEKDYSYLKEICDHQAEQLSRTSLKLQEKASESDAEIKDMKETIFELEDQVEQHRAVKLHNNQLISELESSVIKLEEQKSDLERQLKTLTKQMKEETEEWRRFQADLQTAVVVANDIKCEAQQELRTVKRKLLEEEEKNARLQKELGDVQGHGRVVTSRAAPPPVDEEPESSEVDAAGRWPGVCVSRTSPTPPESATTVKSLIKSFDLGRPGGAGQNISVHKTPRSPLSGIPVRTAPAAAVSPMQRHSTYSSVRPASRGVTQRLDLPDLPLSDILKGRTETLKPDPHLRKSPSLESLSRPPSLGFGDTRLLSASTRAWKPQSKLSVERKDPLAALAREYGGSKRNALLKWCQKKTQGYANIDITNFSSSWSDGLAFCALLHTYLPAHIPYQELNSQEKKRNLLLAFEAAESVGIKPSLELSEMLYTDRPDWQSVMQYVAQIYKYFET

Compound: CC1Cc2ccccc2N1C(=O)C1CCCN(C1)C(=O)CCl (mixture of isomers) [TRIM25 ligand 11 (diastereomer mixture)]
Assay: probe-labelled cysteine peptide fold change vs DMSO (competition) (log2 fold change); higher = less target engagement (more negative = stronger competition)
Details: THP-1, incubation time: 4 h
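Also: competitive chemoproteomic profiling in live THP-1 cells with an iodoacetamide desthiobiotin (IA-DTB) probe, comparing probe-labelled peptide intensities in compound-treated cells against DMSO-treated controls.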

Row | Target | probe-labelled cysteine peptide fold change (10 µM) | probe-labelled cysteine peptide fold change (50 µM)
1 | SPATA5_Q8NB90_163_DMEINEEELTGCILR (UniProt Q8NB90) | 0.00135 | -0.151
2 | SRC_P12931_248_LTTVCPTSKPQTQGLAK (UniProt P12931) | 0.103 | -0.0306
3 | SP3_Q02447_623+628_KQHICHIPGCGK (UniProt Q02447) | -0.0261 | 0.063
4 | SNX32_Q86XE0_237_CLADDYIPISAALSSLGTQEVNQLR (UniProt Q86XE0) | 0.34 | -0.184
5 | SNUPN_O95149_199_GHPFYDCQTDFR (UniProt O95149) | 0.47 | 0.00215
6 | SPATS2L_Q9NUQ6_263_AAFAELHNCIIDK (UniProt Q9NUQ6) | 0.126 | -0.00451
7 | SPTAN1_Q13813_1454_MMLDQCLELQLFHRDCEQAENWMAAR (UniProt Q13813) | -0.0646 | 0.00333
8 | SRP72_O76094_323_ALLAMYTNQAEQCRK (UniProt O76094) | -0.297 | -0.238
9 | SNW1_Q13573_250_IPPCISNWK (UniProt Q13573) | -0.0831 | -0.131
10 | SRI_P30626_57+75_CLTQSGIAGGYKPFNLETCR (UniProt P30626) | -0.187 | -0.141
11 | SPAG5_Q96R06_907_TEQETLLLSTACPPTQEHPLPNDR (UniProt Q96R06) | 0.146 | -0.116
12 | SRC_P12931_241_HADGLCHR (UniProt P12931) | 0.0892 | 0.199
13 | SORD_Q00796_140_HNAAFCYK (UniProt Q00796) | -0.0352 | 0.0317
14 | SRP68_Q9UHB9_344_LFESMLSECR (UniProt Q9UHB9) | -0.0404 | -0.0262
15 | SRGN_P10124_40+49_CNPDSNSANCLEEK (UniProt P10124) | 0.0607 | -0.412
16 | SNX7_Q9UNH6_325_KADTDLLPEEIGKLEDKVECANNALK (UniProt Q9UNH6) | -0.303 | -0.442
17 | SP100_P23497_373_EGQEATCSRPQIVPEPMDFRK (UniProt P23497) | -0.171 | -0.316
18 | SPTLC2_O15270_99_CHHATER (UniProt O15270) | 0.261 | 0.971
19 | SON_P18583_92_CVSVQTDPTDEIPTKK (UniProt P18583) | -0.114 | -0.537
20 | SREBF1_P36956_932_ALLGCAK (UniProt P36956) | -0.00564 | 0.0554
21 | SNX20_Q7Z614_236_LTAHCPAAAVPALCAVLLCHR (UniProt Q7Z614) | -0.0692 | 0.06
22 | SNTB1_Q13884_515_DGEIQLDLHSCPKPIVFIIHSFLSAK (UniProt Q13884) | -0.207 | 0.302

Row | Target | probe-labelled cysteine peptide fold change (10 µM) | probe-labelled cysteine peptide fold change (50 µM)
23 | SPAG7_O75391_101_SILHDVVEVAGLTSFSFGEDDDCR (UniProt O75391) | -0.0927 | -0.274
24 | SNX29_Q8TEQ0_44_VTCLCAQFEAVLQHGLK (UniProt Q8TEQ0) | 0.0246 | 0.0548
25 | SP100_P23497_248_AEPTESCEQIAVQVNNGDAGR (UniProt P23497) | -0.242 | 0.017
26 | SNX27_Q96L92_513_IFTPYFNYMHECFER (UniProt Q96L92) | 0.0211 | 0.164
27 | SPTAN1_Q13813_1622_GACAGSEDAVK (UniProt Q13813) | -0.135 | -0.00186
28 | SNU13_P55769_93+102_ACGVSRPVIACSVTIK (UniProt P55769) | -0.144 | 0.0201
29 | SNX3_O60493_140_CLHMFLQDEIIDK (UniProt O60493) | -0.0941 | -0.138
30 | SNRPD2_P62316_63_AFDRHCNMVLENVK (UniProt P62316) | -0.388 | -0.34
31 | SRCAP_Q6ZRS2_2372_EEVFRLPQEEEEGPGAGDESSCGTGGGTHR (UniProt Q6ZRS2) | -0.0985 | -0.303
32 | SP110_Q9HB58_283_CIWSTPK (UniProt Q9HB58) | -0.0816 | -0.2
33 | SNX6_Q9UNH7_149_KTVAMHEVFLCR (UniProt Q9UNH7) | -0.161 | -0.257
34 | SP3_Q02447_683+686_KFVCPECSK (UniProt Q02447) | 0.0493 | 0.0729
35 | SRGAP2_O75044_588_DIFHDLMACVTMDNLQER (UniProt O75044) | -0.0319 | 0.111
36 | SRP72_O76094_349_ISASLQSQSPEHLLPVLIQAAQLCR (UniProt O76094) | 0.269 | -0.0633
37 | SPR_P35270_10_AVCLLTGASR (UniProt P35270) | -0.0764 | 0.0366
38 | SNX27_Q96L92_432_TCEGYNEIIFPHCACDSR (UniProt Q96L92) | 0.135 | -0.0106
39 | SRP72_O76094_50_DDVTALHCK (UniProt O76094) | 0.148 | 0.207
40 | SON_P18583_2070_ANAAAMCAK (UniProt P18583) | 0.0129 | -0.103
41 | SORL1_Q92673_643_LWSPSDERGNECLLGHK (UniProt Q92673) | -0.146 | -0.0525
42 | SPOUT1_Q5T280_10_RPCGPGEHGQR (UniProt Q5T280) | 0.168 | -0.0136
43 | SORBS3_O60504_482_KGEHICLIR (UniProt O60504) | 0.0742 | 0.0203
44 | SREK1_Q8WXA9-2_96_ALIVVPCAEGK (UniProt Q8WXA9) | 0.0684 | -0.217

Row | Target | probe-labelled cysteine peptide fold change (10 µM) | probe-labelled cysteine peptide fold change (50 µM)
45 | SRP19_P09132_17_FICIYPAYLNNKK (UniProt P09132) | -0.268 | -0.125
46 | SNX27_Q96L92_30_NGGGGGGGGSGLHCAGNGGGGGGGPR (UniProt Q96L92) | -0.0382 | -0.125
47 | SPATS2L_Q9NUQ6_351_AQIMLCGEITHPK (UniProt Q9NUQ6) | 0.164 | -0.257
48 | SRBD1_Q8N5C6_827_TAVNVLLKPNPLDQTCIHPESYDIAMR (UniProt Q8N5C6) | -0.21 | 0.000566
49 | SORL1_Q92673_736_ISGDTCSGGDVEAR (UniProt Q92673) | 0.052 | -0.00891
50 | SRP19_P09132_17_FICIYPAYLNNK (UniProt P09132) | 0.0533 | 0.113
51 | SRM_P19623_123_HPSVESVVQCEIDEDVIQVSK (UniProt P19623) | 0.14 | -0.115
52 | SORBS3_O60504_482_GEHICLIR (UniProt O60504) | 0.12 | 0.166
53 | SPINT1_O43278_424_FTYGGCYGNK (UniProt O43278) | 0.0778 | 0.114
54 | SPAST_Q9UBP0_220_SQTDVYNDSTNLACR (UniProt Q9UBP0) | -0.142 | -0.0365
55 | SPTLC1_O15269_100_ECINFASFNFLGLLDNPR (UniProt O15269) | 0.0114 | 0.0695
56 | SRCAP_Q6ZRS2_1993_FIFVMPPVEAPPPSLHACHPPPWLAPR (UniProt Q6ZRS2) | -0.00141 | -0.0784
57 | SPTBN1_Q01082_1900_SLLDACESRR (UniProt Q01082) | -0.119 | -0.13
58 | SNX5_Q9Y5X3_250_NVADDYIHTAACLHSLALEEPTVIKK (UniProt Q9Y5X3) | -0.0814 | -0.118
59 | SPTAN1_Q13813_158_ECEDVMDWINDK (UniProt Q13813) | -0.0266 | 0.0967
60 | SPECC1_Q5M775_740_CEAQQELR (UniProt Q5M775) | 0.056 | -0.0406
61 | SNU13_P55769_93_ACGVSRPVIACSVTIK (UniProt P55769) | -0.0619 | -0.0764
62 | SQOR_Q9Y6N5_337_YPNVFGIGDCTNLPTSK (UniProt Q9Y6N5) | -0.0695 | -0.0803
63 | SPTBN1_Q01082_2227_SWHNVYCVINNQEMGFYK (UniProt Q01082) | 0.112 | 0.0328
64 | SPRYD7_Q5W111_150_NMHCPASGIR (UniProt Q5W111) | 0.0439 | -0.0213
65 | SP4_Q02446_625_VACSCPNCR (UniProt Q02446) | -0.00227 | 0.0615
66 | SPATA20_Q8TB22_671_CVCLLTAFSER (UniProt Q8TB22) | -0.0272 | 0.0674

Row | Target | probe-labelled cysteine peptide fold change (10 µM) | probe-labelled cysteine peptide fold change (50 µM)
67 | SNRPB_P14678_45_HMNLILCDCDEFR (UniProt P14678) | 0.34 | 0.165
68 | SPTBN1_Q01082_624_VAHMEFCYQELCQLAAER (UniProt Q01082) | 0.0414 | 0.146
69 | SRCAP_Q6ZRS2_141_GHWDYLCEEMQWLSADFAQER (UniProt Q6ZRS2) | 0.208 | -0.00654
70 | SPATA2_Q9UM82_41_QRPGSDECLR (UniProt Q9UM82) | -0.103 | -0.177
71 | SPOUT1_Q5T280_239_LNQQQHPDCK (UniProt Q5T280) | 0.00935 | 0.134
72 | SNU13_P55769_102_PVIACSVTIK (UniProt P55769) | -0.0974 | 0.132
73 | SPTBN1_Q01082_861_MFSEADACELWIDEK (UniProt Q01082) | -0.0783 | -0.00812
74 | SNX29_Q8TEQ0_121_CALNEHSLER (UniProt Q8TEQ0) | 0.0515 | -0.00659
75 | SPECC1_Q5M775_598_DLLELSCNELRQELLK (UniProt Q5M775) | -0.45 | -0.243
76 | SNX14_Q9Y5W7_593_ERIPVFCIDVER (UniProt Q9Y5W7) | -0.0227 | 0.00739
77 | SNRPB_P14678_45_HMNLILCDCDEFRK (UniProt P14678) | -0.111 | -0.0458
78 | SORD_Q00796_179_VLVCGAGPIGMVTLLVAK (UniProt Q00796) | -0.904 | -0.915
79 | SPAG1_Q07617_680_QDCDQALQLADGNVK (UniProt Q07617) | -0.107 | -0.0204
80 | SNX5_Q9Y5X3_250_NVADDYIHTAACLHSLALEEPTVIK (UniProt Q9Y5X3) | 0.0896 | -0.0461
81 | SP3_Q02447_602_VACTCPNCK (UniProt Q02447) | -0.113 | -0.0153
82 | SNRPB_P14678_43+45_HMNLILCDCDEFR (UniProt P14678) | 0.0226 | 0.125
83 | SPATA5_Q8NB90_81_SANICIGRPVLLTSLNGK (UniProt Q8NB90) | -0.313 | -0.172
84 | SPTAN1_Q13813_1444_MMLDQCLELQLFHR (UniProt Q13813) | 0.0765 | 0.0852
85 | SPTLC2_O15270_438_ECVQQLAENTR (UniProt O15270) | -0.0248 | 0.043
